# Results from PubChem BioAssay AID1487 (National Center for Advancing Translational Sciences (NCATS), 2009).
# Out of some 200,000 compounds screened, about 25 (0.01%) were called active. The inconclusive results got no clear call from the source; some entries with a clear call stand among them for comparison. Calls come from the whole dose curve; as a rule, active = well fitted inhibition curve with a large enough effect in the signal ratio, with a control signal flat (not every such curve was filed as active); inconclusive = small, poorly fitted or top-dose-only effect, or effect the other way, or a change in a side signal; inactive = flat fitted curve, though single readings scatter; the % refers to the signal ratio. A potency beside an inconclusive call is a rough fit, not a confirmed value.
# Experiment: qHTS Assay for Modulators of Lamin A Splicing
# Conditions: HeLa LMNA splicing GFP/RFP minigene ratio, 48 h; ratio change, negative = inhibition: at 46.1 µM (top of the series) unless noted
# Procedure, shortened: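 S3 HeLa cells stably expressing lamin A-EGFP splicing minigene plus DsRed2, 600 cells/well, 48 h compound exposure at 37C. Laser-scanning cytometry; analysed as GFP (500-530 nm)/RFP (575-640 nm) total intensity ratio; 0.5% DMSO vehicle.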
# % is set by controls: 0 for no effect and ±100 for the full control effect; potency is the fitted concentration of half-maximal effect.
Compound,"ratio change, negative = inhibition",Potency
Clc1cccc(CSc2nnc(C3CCNCC3)o2)c1,inactive: -5.15% [at 46 µM],–
CCN(CCCNC(=O)Cn1ncc2c([nH]c3ccc(C)cc32)c1=O)Cc1ccccc1,inactive: -1.23% [at 46 µM],–
COc1cccc(C2CC(=O)C3=C(C2)Nc2ccccc2N(C(=O)CCC(=O)O)C3c2ccc(F)cc2)c1 (stereo not drawn),inconclusive: 9.69% [at 46 µM],–
O=[N+]([O-])c1ccc(-c2csc(N3CCc4ccccc4C3)n2)cc1,inconclusive: -1.78%,–
COc1ccc(NCc2ccc([N+](=O)[O-])s2)c(OC)c1,inactive: -4.79%,–
COc1ccc2nc(NC(=O)c3cc(S(=O)(=O)N4CCOCC4)ccc3C)sc2c1,–,"inconclusive: 35.5 µM [falling, single point]"
O=C(CN1CCN(C(=O)c2ccco2)CC1)Nc1ccc(Cl)c(S(=O)(=O)N2CCOCC2)c1,inconclusive: 0.436% [at 9.22 µM],–
Cc1cc(NS(=O)(=O)c2ccc(NC(=S)NC(=O)c3ccc(C(C)(C)C)cc3)cc2)no1,inconclusive: 2.04%,–
Cc1ccccc1-c1nc(SCC(=O)N(C)c2ccccc2)c2c(=O)n(C)c(=O)n(C)c2n1,inconclusive: -5.36% [at 46 µM],–
CCc1c(C)[nH]n(-c2nc(-c3cccc([N+](=O)[O-])c3)cs2)c1=O,–,"inconclusive: 35.5 µM [falling, single point]"
Cc1c(/C=N/NC(=O)c2ccccc2O)c2ccccn2c1C(=O)c1ccc(F)cc1,inconclusive: 6.44%,–
CCN(CC)C(=O)Cn1cc(S(=O)(=O)CC(=O)Nc2ccc3c(c2)OCCO3)c2ccccc21,inconclusive: 12.1% [at 9.22 µM],–
CSc1c(-c2ccccn2)c(N)nn1C(=O)C1CCC1,inconclusive: 12.4% [at 46 µM],–
CCOC(=O)c1sc(NC(=O)CCN2CCC(C)CC2)c(C(=O)OCC)c1C,inconclusive: -35.9% [at 46 µM],–
CC(=O)N(C)c1ccc(N=Nc2c(C)[nH]n(C(N)=S)c2=O)cc1,inconclusive: -16.4% [at 46 µM],–
O=C(COC(=O)c1c2c(nc3ccccc13)CCCC2)Nc1ccc2c(c1)OCO2,–,"inconclusive: 11.2 µM [falling, partial curve]"
COc1ccc(CNC(=O)COC(=O)/C=C/c2ccc(Cl)cc2)cc1,inconclusive: -4.37% [at 46 µM],–
COc1cc2cc3c4cc(OC)c(OC)cc4cc[n+]3c(C)c2cc1OC,inactive: -4.2%,–
Cc1ccccc1NC(=O)CN1C(=O)C(C)(C)c2ccccc21,inconclusive: -17.6% [at 46 µM],–
Cc1ccc(C)c(N2CCN(S(=O)(=O)c3ccc4c(c3)oc(=O)n4C)CC2)c1,inconclusive: 6.29%,–
Cc1ccc(-c2csc(NC(=O)c3cnccn3)n2)cc1C,inconclusive: -5.61% [at 46 µM],–
O=C(O)c1cc(-c2ccc(C(F)(F)F)cc2)nc2n[nH]c(-c3ccccc3)c12,inconclusive: -6.5% [at 46 µM],–
CC(COc1ccc(/C=C/c2ccccc2)cc1)[N+](C)(C)C (stereo not drawn),–,"inconclusive: 31.6 µM [cytotoxic, single point]"
COc1ccc(CNC(=O)C(NC(C)=O)C(=O)Nc2ccc(C(C)C)cc2)cc1 (stereo not drawn),inconclusive: 1.59% [at 1.84 µM],–
Cc1onc(-c2ccccc2Cl)c1C(=O)Nc1ccccc1,–,"inconclusive: 35.5 µM [falling, single point]"
CCOC(=O)N1CCC(NC(=O)C2CCCN(S(=O)(=O)c3cccc4nsnc34)C2)CC1 (stereo not drawn),inconclusive: 4.87%,–

Compound,"ratio change, negative = inhibition",Potency
Cc1ccc(OCC(O)Cn2c(=N)n(CCN3CCCCC3)c3ccccc32)cc1 (stereo not drawn),–,"inconclusive: 31.6 µM [falling, single point]"
CN(C)CC/C=C1\c2ccccc2COc2ccc(CC(=O)O)cc21,–,"inconclusive: 0.0056 µM [inhibitor, full curve, poor fit]"
c1ccc(C2CN3CCSC3=N2)cc1 (stereo not drawn),inconclusive: 2.08%,–
O=C(CCCCn1c(=O)[nH]c2ccsc2c1=O)NCCc1ccccc1,inconclusive: -1.85% [at 46 µM],–
CN(C)S(=O)(=O)c1cccc(C(=O)Nc2cc(Cl)ccc2O)c1,–,"inconclusive: 22.4 µM [fluorescent, single point]"
Cc1c(C(=O)NCc2cccc(Cl)c2)sc2nc3n(c(=O)c12)CCC3,inactive: -6.32% [at 46 µM],–
CC(C)(C)SCCNC(=O)Nc1ccccc1,inconclusive: 9.97%,–
CCc1ccccc1NC(=O)CC1CS(=O)(=O)CC1CC(=O)Nc1ccccc1CC (stereo not drawn),inactive: -3.95%,–
O=C(NCc1ccco1)/C(=C/c1cccc(C(F)(F)F)c1)c1nc2ccccc2[nH]1,–,"inconclusive: 7.08 µM [inhibitor, partial curve]"
CC(=O)NC(NC(=S)N1CCCCCC1)C(Cl)(Cl)Cl (stereo not drawn),inconclusive: 20.2% [at 46 µM],–
COc1cccc(CC2(CO)CCN(Cc3ccc(NC(C)=O)cc3)CC2)c1,inconclusive: 27.5% [at 46 µM],–
CN(C)S(=O)(=O)c1cccc(C(=O)NC2CCCc3ccccc32)c1 (stereo not drawn),inactive: -0.573%,–
Cn1c(=O)cc(OCCCC(=O)NCCCN2CCN(Cc3ccccc3)CC2)c2ccccc21,inconclusive: -2.19%,–
O=C1N/C(=N\N=C\c2ccco2)SC1Cc1ccc(F)cc1 (stereo not drawn),inconclusive: 6.07% [at 46 µM],–
COc1ccc(CCNC(=O)c2ccc(CN3CCC(Cc4ccccc4)CC3)cc2)cc1OC,–,"inconclusive: 35.5 µM [fluorescent, single point]"
COc1ccc(-c2ccc(NS(=O)(=O)c3ccc(OC)c(OC)c3)cc2)nn1,inconclusive: -13.8% [at 46 µM],–
Cc1csc(NC(=O)c2cc(-c3ccccc3)nc3ccccc23)n1,–,"inconclusive: 22.4 µM [falling, partial curve]"
CCN(CC)c1nc(Oc2ccc(=O)[nH]n2)nc(N2CCOCC2)n1,inconclusive: -0.938%,–
Cn1c(N/N=C\c2cccc(O)c2)cc(=O)n(C)c1=O,inconclusive: -10.1%,–
O=C(NNC(=O)C1COc2ccccc2O1)c1cccc([N+](=O)[O-])c1 (stereo not drawn),inconclusive: 19.1% [at 46 µM],–
CN(C)c1ccc(C(CNC(=O)c2ccccc2)N2CCc3ccccc32)cc1 (stereo not drawn),–,"inconclusive: 11.2 µM [inhibitor, single point]"
COc1ccccc1CNc1nc(-c2ccco2)nn1S(=O)(=O)c1ccc2ccccc2c1,inactive: 0.6% [at 46 µM],–
CNC(=O)C1CCC(Cn2c(=O)c3sccc3n(CC(=O)NCc3ccccc3)c2=O)CC1 (stereo not drawn),inconclusive: 22.6% [at 46 µM],–
Cc1ccc(S(=O)(=O)CCSc2nc(C)cc(C(F)(F)F)c2C#N)cc1,–,"inconclusive: 35.5 µM [rising, single point]"
COc1ccc(-c2nc3scc(CCNS(=O)(=O)c4ccc(C)cc4)n3n2)cc1,inactive: 7.63% [at 46 µM],–
COC(=O)C1=CN(CC2CCCO2)C=C(C(=O)OC)C1c1cc(OC)c(OC)c(OC)c1 (stereo not drawn),inconclusive: 8.42%,–

Compound,"ratio change, negative = inhibition",Potency
N#CC1=C(N)Oc2cc3ccccc3cc2C1c1cccnc1 (stereo not drawn),inactive: -18.2%,–
O=C(CSc1nnc(NC(=O)c2ccccc2Cl)s1)Nc1ccc2c(c1)oc1ccccc12,inconclusive: 13.6%,–
COc1ccccc1-c1cc(C(=O)N2CCc3ccccc3C2)c2ccccc2n1,inconclusive: -13.8%,–
COc1cc(CNCc2ccco2)ccc1OCc1ccccc1,inconclusive: 6.32%,–
COc1ccccc1Nc1nc(N)nc(CN2CCC(C)CC2)n1,inconclusive: -11.9% [at 46 µM],–
CCOC(=O)c1cnc(SCC(=O)Nc2nc(C)c(C)s2)nc1N,inconclusive: -9.35%,–
CC(C)CNC(=O)CN(c1cccc(Cl)c1)S(C)(=O)=O,inconclusive: 13.8% [at 46 µM],–
COc1ccc(C(=O)NC(=S)NCc2cccnc2)cc1Br,inactive: -20.7% [at 46 µM],–
O=c1[nH]n(-c2ccc(Cl)cc2)c2ncccc12,inactive: 2.49%,–
O=C(CCC(=O)Nc1ccc(Cl)cc1Cl)N/N=C/c1ccc([N+](=O)[O-])o1,inconclusive: 2.57% [at 46 µM],–
Cc1ccc(S(=O)(=O)N(C)Cc2cc3ccccc3[nH]c2=O)cc1,inactive: 8.48%,–
O=C(NCc1ccc2c(c1)OCO2)c1cc(-c2ccccn2)nc2ccccc12,inconclusive: -22.2% [at 46 µM],–
CCCc1nnc(NC(=O)c2c(O)c3cccc4c3n(c2=O)CCC4)s1,inconclusive: -15.1%,–
O=C(Nc1ccccc1OC(F)F)c1cc2c(s1)CCC2,inactive: -5.13%,–
Cc1cc(C)c(C)c(S(=O)(=O)NNC(=O)c2cccc(S(=O)(=O)N3CCOCC3)c2)c1C,inconclusive: 11.4%,–
COC(=O)c1ccsc1NC(=O)CSc1nnnn1-c1ccccc1SC,inactive: 2.29%,–
O=C(CSc1ncnc2scc(-c3ccccc3)c12)N1CCN(c2ccccc2F)CC1,–,"inconclusive: 22.4 µM [fluorescent, single point]"
CCONc1ncnc2nonc12,inactive: 0.0145%,–
Nc1ccc(S(=O)(=O)c2cccc(N)c2)cc1,inactive: 0.694%,–
CC(NC(=O)COc1ccccc1-c1ccccc1)c1ccccc1 (stereo not drawn),–,"inconclusive: 35.5 µM [falling, single point]"
CCOC(=O)c1ccc(NC(=O)C(C)NS(=O)(=O)c2ccc(OC)cc2)cc1 (stereo not drawn),inactive: -5.93%,–
Cc1ccc(-c2nc(NC(=O)c3nn(C)cc3[N+](=O)[O-])sc2C)cc1C,inconclusive: 164%,–
Cc1ccc(S(=O)(=O)Nc2ccc(-c3cn4ccc(C)cc4n3)cc2)cc1,inconclusive: -35.6%,–
COCc1cc(N2CCCC2)nc(-c2ccccc2)n1,inconclusive: -14% [at 9.22 µM],–
Cc1cccc(NC(=O)c2sc3nc4n(c(=O)c3c2C)N=C(c2ccc(F)cc2)CS4)c1C,inactive: 7.99% [at 46 µM],–
NC(=O)CC[C@@H](N)C(=O)O,–,"inconclusive: 35.5 µM [inhibitor, single point]"

# By substructure, the compounds so far containing a nitro group on carbon.
Compound,"ratio change, negative = inhibition",Potency
O=[N+]([O-])c1ccc(-c2csc(N3CCc4ccccc4C3)n2)cc1,inconclusive: -1.78%,–
COc1ccc(NCc2ccc([N+](=O)[O-])s2)c(OC)c1,inactive: -4.79%,–
CCc1c(C)[nH]n(-c2nc(-c3cccc([N+](=O)[O-])c3)cs2)c1=O,–,"inconclusive: 35.5 µM [falling, single point]"
O=C(NNC(=O)C1COc2ccccc2O1)c1cccc([N+](=O)[O-])c1 (stereo not drawn),inconclusive: 19.1% [at 46 µM],–
O=C(CCC(=O)Nc1ccc(Cl)cc1Cl)N/N=C/c1ccc([N+](=O)[O-])o1,inconclusive: 2.57% [at 46 µM],–
Cc1ccc(-c2nc(NC(=O)c3nn(C)cc3[N+](=O)[O-])sc2C)cc1C,inconclusive: 164%,–
